At least one compound was matched to its structure with a doubt left.
Columns and labels:
Type in all cases: cell-based
[1] = test system: Staphylococcus aureus; assay: antimicrobial testing by agar dilution, Staphylococcus aureus
Protocol: (§1) The antimicrobial properties of the 1-hexyl-5-(4-methoxyphenyl)-2,4-diphenyl-1H-imidazole was studied by the method of agar dilution. Test solutions of each compound was prepared in concentration of 1% using dimethylformamide as a solvent then they are diluted in physiological solution to obtain the final experimental dilutions 1:100, 1:200, 1:400, 1:800. The effect of these substances are compared with furacillin in a controllable study. The testing microbes used were gram positive bacteria Staphylococcus aureus, gram negative bacteria Escherichia coli, Pseudomonas aeruginosa and Candida albicans fungi were taken. The experiments used for this survey were meat-pentonlu agar (EPA) for cultivation of bacteria and Saburo environment for fungi. Each experiment used 1 ml of test solution on each plate 500 min. Add 2 drops of emulsified with microbes feel. All experimental samples were taken from the agar after 10, 20, 40, 60 minutes in the environment on the basis of Patrk planted. Bacteria were cultivated at a temperature of 37° C. for 1 day and the mushroom was kept in a thermostat for […] at a temperature of 28° C. Then the results were checked.

[2] = test system: Escherichia coli; assay: antimicrobial testing by agar dilution, Escherichia coli
Protocol: as §1

[3] = test system: Pseudomonas aeruginosa; assay: antimicrobial testing by agar dilution, Pseudomonas aeruginosa
Protocol: as §1

[4] = test system: Candida albicans; assay: antimicrobial testing by agar dilution, Candida albicans
Protocol: as §1

[5] = dilution rate 1:100, exposure time 10 min
[6] = dilution rate 1:100, exposure time 20 min
[7] = dilution rate 1:100, exposure time 40 min
[8] = dilution rate 1:100, exposure time 60 min
[9] = dilution rate 1:200, exposure time 10 min
[10] = dilution rate 1:200, exposure time 20 min
[11] = dilution rate 1:200, exposure time 40 min
[12] = dilution rate 1:200, exposure time 60 min
[13] = dilution rate 1:400, exposure time 10 min
[14] = dilution rate 1:400, exposure time 20 min
[15] = dilution rate 1:400, exposure time 40 min
[16] = dilution rate 1:400, exposure time 60 min
[17] = dilution rate 1:800, exposure time 10 min
[18] = dilution rate 1:800, exposure time 20 min
[19] = dilution rate 1:800, exposure time 40 min
[20] = dilution rate 1:800, exposure time 60 min

## NC(=O)N/N=C/c1ccc([N+](=O)[O-])o1 [Furacilin]
[1]; [5]
  antimicrobial activity, St. Aereus: −
[1]; [6]
  antimicrobial activity, St. Aereus: −
[1]; [7]
  antimicrobial activity, St. Aereus: −
[1]; [8]
  antimicrobial activity, St. Aereus: −
[1]; [9]
  antimicrobial activity, St. Aereus: +
[1]; [10]
  antimicrobial activity, St. Aereus: +
[1]; [11]
  antimicrobial activity, St. Aereus: +
[1]; [12]
  antimicrobial activity, St. Aereus: +
[1]; [13]
  antimicrobial activity, St. Aereus: +
[1]; [14]
  antimicrobial activity, St. Aereus: +
[1]; [15]
  antimicrobial activity, St. Aereus: +
[1]; [16]
  antimicrobial activity, St. Aereus: +
[1]; [17]
  antimicrobial activity, St. Aereus: +
[1]; [18]
  antimicrobial activity, St. Aereus: +
[1]; [19]
  antimicrobial activity, St. Aereus: +
[1]; [20]
  antimicrobial activity, St. Aereus: +
[2]; [5]
  antimicrobial activity, E. Coli: −
[2]; [6]
  antimicrobial activity, E. Coli: −
[2]; [7]
  antimicrobial activity, E. Coli: −
[2]; [8]
  antimicrobial activity, E. Coli: −
[2]; [9]
  antimicrobial activity, E. Coli: +
[2]; [10]
  antimicrobial activity, E. Coli: +
[2]; [11]
  antimicrobial activity, E. Coli: +
[2]; [12]
  antimicrobial activity, E. Coli: +
[2]; [13]
  antimicrobial activity, E. Coli: +
[2]; [14]
  antimicrobial activity, E. Coli: +
[2]; [15]
  antimicrobial activity, E. Coli: +
[2]; [16]
  antimicrobial activity, E. Coli: +
[2]; [17]
  antimicrobial activity, E. Coli: +
[2]; [18]
  antimicrobial activity, E. Coli: +
[2]; [19]
  antimicrobial activity, E. Coli: +
[2]; [20]
  antimicrobial activity, E. Coli: +
[3]; [5]
  antimicrobial activity, Ps. aeruginosa: +
[3]; [6]
  antimicrobial activity, Ps. aeruginosa: +
[3]; [7]
  antimicrobial activity, Ps. aeruginosa: +
[3]; [8]
  antimicrobial activity, Ps. aeruginosa: +
[3]; [9]
  antimicrobial activity, Ps. aeruginosa: +
[3]; [10]
  antimicrobial activity, Ps. aeruginosa: +
[3]; [11]
  antimicrobial activity, Ps. aeruginosa: +
[3]; [12]
  antimicrobial activity, Ps. aeruginosa: +
[3]; [13]
  antimicrobial activity, Ps. aeruginosa: +
[3]; [14]
  antimicrobial activity, Ps. aeruginosa: +
[3]; [15]
  antimicrobial activity, Ps. aeruginosa: +
[3]; [16]
  antimicrobial activity, Ps. aeruginosa: +
[3]; [17]
  antimicrobial activity, Ps. aeruginosa: +
[3]; [18]
  antimicrobial activity, Ps. aeruginosa: +
[3]; [19]
  antimicrobial activity, Ps. aeruginosa: +
[3]; [20]
  antimicrobial activity, Ps. aeruginosa: +
[4]; [5]
  antimicrobial activity, Candida albicans: −
[4]; [6]
  antimicrobial activity, Candida albicans: −
[4]; [7]
  antimicrobial activity, Candida albicans: +
[4]; [8]
  antimicrobial activity, Candida albicans: +
[4]; [9]
  antimicrobial activity, Candida albicans: +
[4]; [10]
  antimicrobial activity, Candida albicans: +
[4]; [11]
  antimicrobial activity, Candida albicans: +
[4]; [12]
  antimicrobial activity, Candida albicans: +
[4]; [13]
  antimicrobial activity, Candida albicans: +
[4]; [14]
  antimicrobial activity, Candida albicans: +
[4]; [15]
  antimicrobial activity, Candida albicans: +
[4]; [16]
  antimicrobial activity, Candida albicans: +
[4]; [17]
  antimicrobial activity, Candida albicans: +
[4]; [18]
  antimicrobial activity, Candida albicans: +
[4]; [19]
  antimicrobial activity, Candida albicans: +
[4]; [20]
  antimicrobial activity, Candida albicans: +

Reference: patent US11970461B1, “1-hexyl-5-(4-methoxyphenyl)-2,4-diphenyl-1H-imidazole as an antimicrobial compound” (KING FAISAL UNIVERSITY, priority 2023, dated 2024)
